Results on 7 molecules are retold here after patent publication US20100041597A1, “PEPTIDES TARGETED TO PROTEIN KINASE C ISOFORMS AND USES THEREOF” (priority 2005, published 2010).

The chains behind the UniProt entries cited, without tags or fusion partners. Where a name states a change or a piece, a line headed by the entry shows the natural chain unless it says otherwise.
UniProt Q05655: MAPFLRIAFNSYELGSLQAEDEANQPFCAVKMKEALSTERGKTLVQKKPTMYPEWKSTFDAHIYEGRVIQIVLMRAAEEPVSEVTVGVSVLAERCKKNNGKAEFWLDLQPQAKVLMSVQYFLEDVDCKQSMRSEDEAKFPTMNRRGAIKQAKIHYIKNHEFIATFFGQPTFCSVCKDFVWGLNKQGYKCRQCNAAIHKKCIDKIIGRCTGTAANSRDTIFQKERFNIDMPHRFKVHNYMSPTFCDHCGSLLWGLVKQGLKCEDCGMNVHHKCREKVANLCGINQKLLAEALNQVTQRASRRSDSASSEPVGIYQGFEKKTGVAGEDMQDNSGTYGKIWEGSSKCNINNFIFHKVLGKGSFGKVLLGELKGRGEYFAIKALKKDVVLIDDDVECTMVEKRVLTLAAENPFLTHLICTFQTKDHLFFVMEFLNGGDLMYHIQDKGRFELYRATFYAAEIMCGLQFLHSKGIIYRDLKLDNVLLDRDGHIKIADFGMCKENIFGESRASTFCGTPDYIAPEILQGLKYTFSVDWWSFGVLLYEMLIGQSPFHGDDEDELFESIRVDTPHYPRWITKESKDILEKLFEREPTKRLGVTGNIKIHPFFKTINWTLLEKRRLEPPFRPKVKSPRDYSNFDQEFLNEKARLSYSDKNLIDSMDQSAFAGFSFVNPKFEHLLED
UniProt Q02156: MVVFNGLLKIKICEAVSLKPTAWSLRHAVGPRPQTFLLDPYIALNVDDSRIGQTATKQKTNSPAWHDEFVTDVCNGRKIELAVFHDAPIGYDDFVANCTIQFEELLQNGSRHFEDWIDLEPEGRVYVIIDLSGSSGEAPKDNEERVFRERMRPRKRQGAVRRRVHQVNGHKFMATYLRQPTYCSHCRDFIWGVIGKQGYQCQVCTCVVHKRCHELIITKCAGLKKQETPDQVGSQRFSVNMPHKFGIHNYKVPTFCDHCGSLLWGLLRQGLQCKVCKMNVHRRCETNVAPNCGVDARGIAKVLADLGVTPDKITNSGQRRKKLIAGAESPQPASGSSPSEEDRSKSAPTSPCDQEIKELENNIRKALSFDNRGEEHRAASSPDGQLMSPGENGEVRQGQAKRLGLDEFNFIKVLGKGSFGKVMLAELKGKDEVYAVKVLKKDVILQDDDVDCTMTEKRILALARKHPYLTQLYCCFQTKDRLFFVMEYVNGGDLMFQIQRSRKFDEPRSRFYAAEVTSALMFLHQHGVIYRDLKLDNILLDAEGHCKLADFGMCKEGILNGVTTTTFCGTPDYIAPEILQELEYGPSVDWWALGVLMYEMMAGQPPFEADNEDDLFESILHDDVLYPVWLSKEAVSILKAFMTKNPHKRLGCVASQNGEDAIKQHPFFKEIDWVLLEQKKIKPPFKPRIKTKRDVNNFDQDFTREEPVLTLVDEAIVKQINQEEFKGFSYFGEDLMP

Assay [1] concerns the target PKC-βI (purified isoform) (Homo sapiens (Human)) (UniProt P05771). In words: summary grade, purified isoform ELISA. A general note: An ELISA detects its analyte on a solid surface through an enzyme-linked reagent.
Assay [2] has as its target PKC-δ (purified isoform) (Homo sapiens (Human)) (UniProt Q05655). In words: summary grade, purified isoform ELISA.
In assay [3] the target is PKC-βI (purified isoform) (Homo sapiens (Human)) (UniProt P05771). In words: competitive ELISA, purified isoforms.
Assay [4] concerns the target PKC-δ (purified isoform) (Homo sapiens (Human)) (UniProt Q05655). In words: competitive ELISA, purified isoforms.
In assay [5] the target is PKC-β (endogenous, IMR-32 cell lysate) (human) (UniProt P05771). Description: Western blot competition Protocol A, IMR-32 lysate. A general note: In western blotting, separated proteins are transferred to a membrane and probed.
Assay [6] has the same target. Description: Western blot competition Protocol B, IMR-32 extract.
Assay [7] concerns the target PKC-ε (endogenous, human cell extracts) (human) (UniProt Q02156). Described as above.
In assay [8] the target is PKC-α (purified isoform) (Homo sapiens (Human)) (UniProt P17252). In words: summary grade, purified isoform ELISA.
Assay [9] deals with PKC-ε (purified isoform) (Homo sapiens (Human)) (UniProt Q02156). Description: summary grade, purified isoform ELISA.
Assay [10] concerns the target PKC-α (purified isoform) (Homo sapiens (Human)) (UniProt P17252). Description: competitive ELISA, purified isoforms.
Assay [11] deals with PKC-ε (purified isoform) (Homo sapiens (Human)) (UniProt Q02156). Description: competitive ELISA, purified isoforms.
The target in assay [12] is PKC-ε (endogenous, human cell extracts) (human) (UniProt Q02156). Description: summary grade, cell extract blot competition.
Assay [13] shares this target. Description: Western-blot competition on cell extracts against the anti-PKC-ε primary antibody, band 2; peptide at 10X and 20X the antibody concentration; band densitometry (lower band = peptide bound).
Assay [14] deals with PKC-βII (purified isoform) (Homo sapiens (Human)) (UniProt P05771). Description: summary grade, purified isoform ELISA.
The target of assay [15] is PKC-βII (endogenous, human cell extracts) (human) (UniProt P05771). In words: summary grade, cell extract blot competition.
The target of assay [16] is T1, PKC-ζ (endogenous, human cell extracts) (human) (UniProt Q05513).
T1 sequence (looked up): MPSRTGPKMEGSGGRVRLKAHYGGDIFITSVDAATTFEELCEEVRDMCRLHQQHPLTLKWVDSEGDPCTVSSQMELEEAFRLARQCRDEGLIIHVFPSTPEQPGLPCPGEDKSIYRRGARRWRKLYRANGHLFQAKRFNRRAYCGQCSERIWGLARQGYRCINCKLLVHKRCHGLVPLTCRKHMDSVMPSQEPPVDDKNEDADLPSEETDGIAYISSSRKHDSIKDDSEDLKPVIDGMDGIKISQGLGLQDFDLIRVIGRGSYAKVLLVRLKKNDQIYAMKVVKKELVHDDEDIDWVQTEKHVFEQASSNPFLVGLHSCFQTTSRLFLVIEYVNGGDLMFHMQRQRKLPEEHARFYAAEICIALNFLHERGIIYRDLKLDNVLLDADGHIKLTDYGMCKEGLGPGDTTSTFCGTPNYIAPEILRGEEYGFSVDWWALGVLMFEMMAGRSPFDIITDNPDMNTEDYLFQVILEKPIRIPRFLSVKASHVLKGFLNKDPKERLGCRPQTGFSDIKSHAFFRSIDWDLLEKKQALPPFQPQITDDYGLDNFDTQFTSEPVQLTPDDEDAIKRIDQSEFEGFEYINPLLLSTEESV
Description: summary grade, cell extract blot competition.

In assay [17] the target is PKC-βII (endogenous, human cell extracts) (human) (UniProt P05771). Description: Western blot competition Protocol B, IMR-32 extract.
Assay [18] deals with PKC-α (purified isoform) (Homo sapiens (Human)) (UniProt P17252). Description: fluorescent antibody competitive binding assay, commercial isoforms; PRE 20× concentration.
The target is the same in assay [19]. In words: competitive binding assay on purified isoforms: PRE 4 at 20X against the fluorescent anti-PKC-alpha antibody; less antibody signal = peptide bound.
For assay [20], the target named is PKC-βII (endogenous, human cell extracts) (human) (UniProt P05771). Description: Western-blot competition on cell extracts against the anti-PKC-βII primary antibody, catalytic fragment band; peptide at 10X and 20X the antibody concentration; band densitometry (lower band = peptide bound).

No constants are given. Whether binding was seen depends on the method and setting. Some entries that bind do so weakly or less than the wild type.

As to KDANQLIGISI (N-terminal acetyl (Ac); C-terminal amide (NH2)) [PRE 6], the binding entry in [1] and in assay [2] was “binds” each time.
Take RRKKGGKDFVVKR [PRE 1]: the binding result in assay [1], in assay [2], in assay [3], in assay [4] and in [5] was “binds” throughout.
On to KDAQNLIGISL (C-terminal amide (NH2)) [PRE 2], for which the binding result in assay [5], in [6] and in assay [7] was “binds” throughout.
As for AKGIQEVKGGDAQNLIGISI (N-terminal acetyl (Ac); C-terminal amide (NH2)) [PRE 3], the binding entry in [8], in [1], in assay [2], in [9], in [10] and in assay [3] was “binds” each time. Besides, the binding entry in assay [4], in assay [11], in assay [12], in assay [6], in assay [7] and in assay [13] was “binds” each time.
For ISIGILNQADK (N-terminal acetyl (Ac); C-terminal amide (NH2)) [PRE 10], the binding entry in assay [14] was “binds”.
Take RDAQNLIGISI (N-terminal acetyl (Ac); C-terminal amide (NH2)) [PRE 11]: the binding result in assay [8], in [2] and in assay [4] was “binds” throughout.
For KDAQNLIGISI (N-terminal acetyl (Ac); C-terminal amide (NH2)) [PRE 4], the binding entry in assay [8] is given as “binds”; in [1], “binds”; in [10] it was “binds”; in [15], “binds”; in [16], “no binding (tested: 20X)”; in assay [17], “binds”. Also, the binding entry in [18], in [19] and in [20] was “binds” throughout.
